# Experimental data: the supplement of paper PMC3334620
# Over roughly 33,000 sequences, “E-score (-0.5 to 0.5)” has its median near -0.0014; the highest 2% begin near 0.25. Some of the results follow.
# Target: T1, Cad1 (UniProt P24813)
# T1 sequence: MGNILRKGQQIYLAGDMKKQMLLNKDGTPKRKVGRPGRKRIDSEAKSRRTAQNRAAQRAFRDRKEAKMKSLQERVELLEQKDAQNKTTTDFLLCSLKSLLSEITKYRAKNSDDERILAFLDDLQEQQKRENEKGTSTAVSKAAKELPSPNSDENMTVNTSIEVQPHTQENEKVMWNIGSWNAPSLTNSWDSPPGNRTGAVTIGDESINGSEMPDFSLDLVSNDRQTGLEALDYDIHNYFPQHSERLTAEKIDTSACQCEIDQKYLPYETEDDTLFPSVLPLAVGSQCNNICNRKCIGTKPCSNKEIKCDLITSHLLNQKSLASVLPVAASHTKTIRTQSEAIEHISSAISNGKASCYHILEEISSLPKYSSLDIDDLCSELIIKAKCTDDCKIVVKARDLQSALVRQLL
# Test: PBM E-score (8-mer binding enrichment) (E-score (-0.5 to 0.5)); higher = stronger / more preferred TF binding
# Conditions: protein concentration: 100 nM; construct: GST-full length
# In short: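 PURExpress in vitro transcription/translation supplied GST-tagged yeast transcription factors, either full-length or DNA-binding domain. Applied at about 100-200 nM to universal all-10-mer Agilent arrays double-stranded by primer extension, the bound protein was detected with fluorescent anti-GST. E-scores, modified Wilcoxon-Mann-Whitney statistics, were given by the Universal PBM Analysis Suite to ungapped eight-base words pooled with their reverse complements after masliner normalisation.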
row,Sequence,PBM E-score
1,GACAAGTC,0.00519
2,CATACACG,0.0422
3,CTGCAGGA,0.143
4,TCCGAGAA,0.129
5,GAATGACA,0.0489
6,AATAGCGT,0.108
7,CAGGTAAG,-0.157
8,CGAGCTCA,0.159
9,AGGCGGTA,-0.177
10,GTAAGCGA,0.281
11,CCATAAAC,-0.119
12,AGACGCGC,0.0927
13,AAGAATGT,0.0558
14,CGACCCGA,-0.123
15,CCAGGCGG,-0.0898
16,GGGTGGCA,-0.124
17,GGTCCCAC,-0.158
18,AGGTCGAA,0.0571
19,CCGTTGAA,-0.112
20,CAGAATCC,0.062
21,TATAACGA,0.152
22,ATCGGCTA,-0.0351
23,CCCACCTA,-0.201
24,ACTAAACC,0.0291
25,ACGAGTGC,0.0809

row,Sequence,PBM E-score
1,GCGTAACC,-0.0767
2,ATGGTTAC,0.034
3,CGCCACCA,-0.233
4,CATATAGC,0.106
5,GGATTGGA,-0.00674
6,CGACTTAC,0.123
7,AAGGGCAG,-0.0938
8,ACAGTAAA,0.0557
9,GAGTGACC,-0.0636
10,GGCAATTA,0.0903
11,CTGTTTAA,0.0316
12,ATACCGGC,0.0748
13,CCTTCGTA,-0.145
14,CTTTCGGC,-0.0784
15,CACATCTG,-0.126
16,AGTACGGG,-0.17
17,TAAGCTAA,0.22
18,AATCGCAA,0.0999
19,AAACAAAG,0.055
20,ATGGATAC,0.115
21,AAGTAAAC,0.0793
22,GTCGCCAC,-0.117
23,CGATAGTC,0.168
24,TCATTTAA,-0.032
25,CGTGGCAA,-0.252

row,Sequence,PBM E-score
1,GTACCGAC,-0.118
2,AGAACTCT,-0.0345
3,AGGCACCG,-0.155
4,GAGAGGCA,-0.133
5,CCACACCA,-0.00856
6,TCTGGTAA,0.208
7,CACACTAA,0.116
8,ACTCGTAT,0.0214
9,AGAGACCC,-0.164
10,GACCGTGC,-0.0838
11,AGGCTGAA,-0.0576
12,GTGAGCGA,-0.11
13,CAGGAGCG,-0.0398
14,CCGTCTCC,-0.0189
15,AAGGGTGA,-0.00878
16,CCCAGACC,-0.0761
17,CGAGTCCA,-0.275
18,GAGCGAAA,0.0354
19,CTGGGCTC,-0.203
20,ACTTAACT,0.101
21,CAATGGAC,0.181
22,CTCGGGCC,-0.066
23,ACTGCATA,0.153
24,CCGCCCAG,-0.169
25,GACTGCTA,-0.266

row,Sequence,PBM E-score
1,ATTTAGCG,0.0109
2,ACCACAAC,0.0754
3,AACCGATT,0.139
4,CGAACCAC,-0.0167
5,AGTGCTCC,-0.233
6,AGAATCAG,0.122
7,ATGTATCA,0.113
8,GAGTAATC,0.18
9,GCTGGACC,-0.159
10,AAAATGTT,0.0552
11,GTAAATCA,0.148
12,CGGAACAG,-0.0323
13,GAAGCCGC,0.0904
14,TCCCACCA,-0.178
15,GACTGCTC,-0.072
16,GATAGCAC,-0.024
17,CAGGCATA,-0.0501
18,GGGACGGA,-0.264
19,AAGTACGA,0.147
20,GAAGTGAA,-0.0294
21,GTCCGCTA,0.0369
22,AGCGCCCA,-0.264
23,ACTAGGTG,-0.189
24,GCGCATAA,0.0879
25,ATCTTACC,0.0255

# In a second layout: results already given
row	Sequence	PBM E-score
22	GTCGCCAC	-0.117
23	CGATAGTC	0.168
24	TCATTTAA	-0.032
25	CGTGGCAA	-0.252
1	GTACCGAC	-0.118
2	AGAACTCT	-0.0345
3	AGGCACCG	-0.155
4	GAGAGGCA	-0.133
5	CCACACCA	-0.00856
6	TCTGGTAA	0.208
7	CACACTAA	0.116
8	ACTCGTAT	0.0214
9	AGAGACCC	-0.164
10	GACCGTGC	-0.0838
11	AGGCTGAA	-0.0576
12	GTGAGCGA	-0.11
13	CAGGAGCG	-0.0398
14	CCGTCTCC	-0.0189
15	AAGGGTGA	-0.00878
16	CCCAGACC	-0.0761
17	CGAGTCCA	-0.275
18	GAGCGAAA	0.0354
19	CTGGGCTC	-0.203
20	ACTTAACT	0.101
21	CAATGGAC	0.181
22	CTCGGGCC	-0.066
23	ACTGCATA	0.153
24	CCGCCCAG	-0.169
25	GACTGCTA	-0.266
1	ATTTAGCG	0.0109
2	ACCACAAC	0.0754
3	AACCGATT	0.139
4	CGAACCAC	-0.0167
5	AGTGCTCC	-0.233
6	AGAATCAG	0.122
7	ATGTATCA	0.113
8	GAGTAATC	0.18
9	GCTGGACC	-0.159
10	AAAATGTT	0.0552
11	GTAAATCA	0.148
12	CGGAACAG	-0.0323
13	GAAGCCGC	0.0904
14	TCCCACCA	-0.178
15	GACTGCTC	-0.072
16	GATAGCAC	-0.024
17	CAGGCATA	-0.0501
18	GGGACGGA	-0.264
19	AAGTACGA	0.147
20	GAAGTGAA	-0.0294
21	GTCCGCTA	0.0369
22	AGCGCCCA	-0.264
23	ACTAGGTG	-0.189

# Further results:

row,Sequence,PBM E-score
1,GCATAGGA,-0.0296
2,ATCTCCCA,-0.0779
3,ATTAGGTA,0.207
4,GCGCCGCA,0.149
5,CGCTGCCG,-0.119
6,TAACTAAA,0.151
7,GACGGGCC,-0.201
8,CCGCGGCC,0.0114
9,ACGTCTTA,0.0131
10,GCTAAAAA,-0.0879
11,AGAATCTG,-0.0396
12,CACGCATA,-0.0949
13,CAGAGTAC,-0.16
14,CAACGCTG,0.0342
15,TGCCTAAA,-0.0424
16,AGCGTTTA,0.0708
17,GCCGAAGA,0.0279
18,GGGGCAAA,-0.169
19,CATCTAAA,0.115
20,AAATGCCT,-0.198
21,GACATGTA,0.0721
22,ACTGCAAC,-0.162
23,GCCTAGCA,-0.245
24,AATATCCT,-0.0122
25,CCGGTCAG,0.0259

row,Sequence,PBM E-score
1,GTCCATAA,-0.0891
2,ATCCGGTC,0.00942
3,CAGGATCC,-0.00453
4,AATTTCCT,0.171
5,AGACTATA,0.127
6,AGTAAACC,-0.0417
7,CGACGTCA,0.138
8,CAATTAAA,0.143
9,CACGGACG,0.115
10,CGCTTGCC,-0.166
11,TTAGAGAA,-0.283
12,ATGCCTCC,-0.072
13,CCCTCAGA,-0.181
14,GGGAGGAC,-0.131
15,CGGACACA,0.00739
16,ACCGAAGT,0.018
17,AATAGTCC,-0.111
18,GAACCCCC,-0.39
19,CTGTCACC,-0.17
20,CATGTCAG,0.014
21,CTTTAAAG,-0.119
22,GCTTGGCC,-0.103
23,CTAGAATC,0.00014
24,TCAGCCCA,-0.0475
25,CATCACTC,-0.133

row,Sequence,PBM E-score
1,GATCAAAC,0.048
2,AGTGAGCC,-0.0314
3,AGTTGACG,0.0895
4,GAAGCCTA,-0.0534
5,ACACGAAC,0.144
6,CGTTTCAC,0.0896
7,CACTAACA,0.0686
8,ATCGTCAT,0.12
9,CGGGGCAA,-0.0608
10,CCCGTACG,-0.119
11,CCTGCCTC,-0.181
12,ACGACTGG,-0.109
13,CCTTCAAC,-0.0081
14,AAACTAAC,0.0901
15,ATTAGTCC,0.153
16,AAGACACC,-0.109
17,AGACAACA,0.0247
18,TCTCTCAA,0.177
19,ACAAATAT,0.262
20,GGAGCGTA,0.0102
21,ACTCGTTA,-0.0384
22,AGGTTTGA,-0.116
